The text below walks through data of the supplement of paper PMC5355238.

Structures can show the parent of a compound that is named as a salt. Some of the results follow. Single values are uncertain, as repeats are few or missing.

In the assay the test system is Reh. In words: S-phase gammaH2AX median, Z-score vs plate median (drug alone); higher = more S-phase DNA damage. To be noted: MK1775 concentration 0 nM; 10 µM; 4 h.
On to `N[C@@H](Cc1ccc(O)c(O)c1)C(=O)O` [L-3,4-Dihydroxyphenylalanine], for which the “S-phase gammaH2AX median (Z-score)” value was -0.0378.
Consider `CCN1CCCC1CNC(=O)c1cc(S(N)(=O)=O)ccc1OC` (single isomer, unassigned; (-)) [(-)-Sulpiride], for which the “S-phase gammaH2AX median (Z-score)” value was -0.0467.
Turning to `CN(c1ncccc1CNc1nc(Nc2ccc3c(c2)CC(=O)N3)ncc1C(F)(F)F)S(C)(=O)=O`, the “S-phase gammaH2AX median (Z-score)” value was -0.0182.
On to `C[N+](C)(C)CCOC(N)=O` [Carbachol], for which the “S-phase gammaH2AX median (Z-score)” value was 0.204.
Turning to `COc1ccc(-c2oc3cc(OC)ccc3c2C(=O)c2ccc(C#N)cc2)cc1`, the “S-phase gammaH2AX median (Z-score)” value was 0.0329.
`CCN1C(=O)C=CC1=O` [N-Ethylmaleimide]: the “S-phase gammaH2AX median (Z-score)” value was found to be 0.
The value for `O=C1c2c(O)ccc(O)c2C(=O)c2c(NCCNCCO)ccc(NCCNCCO)c21` [Mitoxantrone Hydrochloride] was 5.81; that for `O=C1c2c(O)ccc(O)c2C(=O)c2c(NCCNCCO)ccc(NCCNCCO)c21` [Mitoxantrone] was 14.7; that for `CCOC(=O)C1=C(C)NC(C)=C(C(=O)OC)C1c1cccc(Cl)c1Cl` (stereo not given) [Felodipine] was -0.022.
For `Cc1nc2sccn2c(=O)c1CCN1CCC(=C(c2ccc(F)cc2)c2ccc(F)cc2)CC1` [Ritanserin], the “S-phase gammaH2AX median (Z-score)” value was -0.0133.
`Cc1oc(S(=O)(=O)N2CCCCC2)cc1NC(=O)Nc1ccccc1`: the “S-phase gammaH2AX median (Z-score)” value is -0.053.
In the case of `COc1cc(Nc2ncc3c(n2)-c2ccc(Cl)cc2C(c2c(F)cccc2OC)=NC3)ccc1C(=O)O` [MLN8237 (Alisertib)], the “S-phase gammaH2AX median (Z-score)” value was -0.0174.
As for `Cc1ccc(Nc2nccc(N(C)c3ccc4c(C)n(C)nc4c3)n2)cc1S(N)(=O)=O` [Pazopanib], the “S-phase gammaH2AX median (Z-score)” value was -0.12.
`Nc1cc(C(F)(F)F)c(-c2cc(N3CCOCC3)nc(N3CCOCC3)n2)cn1`: the “S-phase gammaH2AX median (Z-score)” value was -0.0615.
In the case of `Cc1c(C(=O)Nc2ccc(N3C[C@@H](C)O[C@@H](C)C3)nc2)cccc1-c1ccc(OC(F)(F)F)cc1` [LDE225 (NVP-LDE225, Erismodegib)], the “S-phase gammaH2AX median (Z-score)” value is -0.097.
`CC(C)NNC(=O)c1ccncc1` [Iproniazid phosphate]: the “S-phase gammaH2AX median (Z-score)” value amounted to 0.205.
For the molecule `O=C(O)c1cc(=O)c2ccccc2[nH]1` [Kynurenic acid], the “S-phase gammaH2AX median (Z-score)” value is -0.198.
Regarding `Cc1cnc(NC(=O)Nc2cc(Br)c(C)cc2OC[C@@H]2CNCCO2)cn1`, the “S-phase gammaH2AX median (Z-score)” value was determined as 0.501.
Take `O=c1cc(N2CCOCC2)oc2c(-c3ccccc3)cccc12` [LY-294,002 hydrochloride]: the “S-phase gammaH2AX median (Z-score)” value amounted to 0.0591.
The same measure for `O=c1cc(N2CCOCC2)oc2c(-c3ccccc3)cccc12`: -0.0824; for `O=C(O)CCCCCCC1C(=O)NC(=O)N1CCC(O)C1CCCCC1` (stereo not given): -0.102; for `CCCCCCCCCCCCCCCCCCNC(=O)OCC(COP(=O)([O-])OCC[n+]1ccsc1)OC` (stereo not given): 0.36.
Consider `N#Cc1ccc(NC(=O)Nc2ccccc2Br)c2n[nH]nc12`, for which the “S-phase gammaH2AX median (Z-score)” value is -0.036.
As for `Clc1ccc(C(c2ccccc2Cl)C(Cl)Cl)cc1` (stereo not given) [1-(2-Chlorophenyl)-1-(4-chlorophenyl)-2,2-dichloroethane], the “S-phase gammaH2AX median (Z-score)” value was determined as 0.0796.
The value for `c1ccc(-c2nn3c(c2-c2ccnc4cc(OCCN5CCOCC5)ccc24)CCC3)nc1` was 0.0963; that for `C=CCN1CCc2cc(O)c(O)cc2C(c2ccccc2)C1` (stereo not given) was -0.0734; that for `NCCCS(=O)(=O)O` [3-Amino-1-propanesulfonic acid sodium] was -0.0175.
With `COc1cc2nc(N3CCCN(C)CC3)nc(NC3CCN(Cc4ccccc4)CC3)c2cc1OC`, the “S-phase gammaH2AX median (Z-score)” value was -0.162.
In the case of `NC1CONC1=O` (racemic) [DL-Cycloserine], the “S-phase gammaH2AX median (Z-score)” value was 0.0699.
As for `Cc1nc2c([nH]1)c(=O)n(C)c(=O)n2Cc1ccco1` [Furafylline], the “S-phase gammaH2AX median (Z-score)” value came out at 0.
The same measure for `CCC1(C)CC(=O)NC1=O` (stereo not given) [Ethosuximide]: 0.132; for `OC[C@H]1NC[C@@H](O)[C@@H]1O` [1,4-Dideoxy-1,4-imino-D-arabinitol]: -0.18.
Regarding `COc1cc(CNC(=O)CCCCCCC(C)C)ccc1O` [Dihydrocapsaicin], the “S-phase gammaH2AX median (Z-score)” value is 0.0686.
The value for `N#CC[C@H](C1CCCC1)n1cc(-c2ncnc3[nH]ccc23)cn1` was 0.00425; that for `CSc1nc(N)c2ncn([C@@H]3O[C@H](COP(=O)(O)OP(=O)(O)O)[C@@H](O)[C@H]3O)c2n1` [2-Methylthioadenosine diphosphate trisodium] was -0.341; that for `CCCCS(=N)(=O)CCC(N)C(=O)O` [L-Buthionine-sulfoximine] was -0.00388.
In the case of `COc1cccc(OC)c1OCCNCC1CSc2ccccc2O1` (stereo not given) [Benoxathian hydrochloride], the “S-phase gammaH2AX median (Z-score)” value is -0.0544.
Regarding `CCC(C)(C)C(=O)O[C@H]1C[C@@H](C)C=C2C=C[C@H](C)[C@H](CC[C@@H]3C[C@@H](O)CC(=O)O3)[C@H]21` [Simvastatin (Zocor)], the “S-phase gammaH2AX median (Z-score)” value is -0.0437.
The same measure for `Nc1nccc(Oc2ccc(NC(=O)c3c[nH]cc(-c4ccc(F)cc4)c3=O)cc2F)c1Cl`: 0.118; for `CCN(CC)C(=O)c1ccc(O)c(OC)c1` [Vanillic acid diethylamide]: 0.161.
The same measure for `NC1(C(=O)O)CC1` [1-Aminocyclopropanecarboxylic acid hydrochloride]: -0.0777; for `NC(=O)Nc1cc(-c2cccc(F)c2)sc1C(=O)N[C@H]1CCCNC1`: 1.09.
Regarding `O=C(c1ccc(F)cc1)C1CCN(CCn2c(=O)[nH]c3ccccc3c2=O)CC1` [Ketanserin tartrate], the “S-phase gammaH2AX median (Z-score)” value is -0.614.
Regarding `O=C(O)CCc1ccc(NCc2cccc(Oc3ccccc3)c2)cc1`, the “S-phase gammaH2AX median (Z-score)” value amounted to 0.122.
On to `O=C1NCC2(CCN(CCc3ccccc3)CC2)O1` [Fenspiride hydrochloride], for which the “S-phase gammaH2AX median (Z-score)” value was -0.198.
In the case of `Cl.N[C@@H](CCC(=O)O)C(=O)O` [L-Glutamic acid hydrochloride], the “S-phase gammaH2AX median (Z-score)” value came to 0.0283.
In the case of `CSC(=N)N` [S-Methylisothiourea hemisulfate], the “S-phase gammaH2AX median (Z-score)” value is -0.0378.
As to `CCCNC(=O)NS(=O)(=O)c1ccc(Cl)cc1` [Chlorpropamide], the “S-phase gammaH2AX median (Z-score)” value is -0.033.
With `Cc1cnc(Nc2ccc(OCCN3CCCC3)cc2)nc1Nc1cccc(S(=O)(=O)NC(C)(C)C)c1`, the “S-phase gammaH2AX median (Z-score)” value was -0.0135.
As to `Clc1cccc(Cl)c1NC1=NCCN1` [Clonidine hydrochloride], the “S-phase gammaH2AX median (Z-score)” value turned out to be 0.0291.
With `CN(C)S(=O)(=O)c1ccc2c(c1)/C(=C/c1cc3c([nH]1)CCCC3)C(=O)N2`, the “S-phase gammaH2AX median (Z-score)” value was -0.111.
The same measure for `N=C(N)NCCCCNC(=N)N` [Arcaine sulfate]: -0.00971; for `Cc1csc(-c2nnc(Nc3ccc(Oc4ncccc4-c4ccnc(N)n4)cc3)c3ccccc23)c1`: 0.104; for `Nc1nc2c(ncn2COC(CO)CO)c(=O)[nH]1` [Ganciclovir]: 0.0346.
For `c1ccc2c(CCNc3ccc(Nc4ccncc4)cc3)c[nH]c2c1`, the “S-phase gammaH2AX median (Z-score)” value was found to be 0.0104.
The same measure for `COc1c(C)cnc(Cn2cnc3c(Cl)nc(N)nc32)c1C`: -0.118; for `CC(C)NCC(O)COc1ccc(CC(N)=O)cc1` (stereo not given) [(?)-Atenolol]: -0.0485.
The value for `Cc1ccc([C@@H]2O[C@H](CO)[C@@H](O)[C@H](O)[C@H]2O)cc1Cc1ccc(-c2ccc(F)cc2)s1` [Canagliflozin] was -0.0622.
Regarding `CN1CCN(CC(=O)N2c3ccccc3C(=O)Nc3cccnc32)CC1` [Pirenzepine dihydrochloride], the “S-phase gammaH2AX median (Z-score)” value was 0.0922.
Consider `Oc1cc2c(cc1O)C(c1ccccc1)CNCC2` (stereo not given), for which the “S-phase gammaH2AX median (Z-score)” value was -0.0441.
The value for `NC[C@@H]1O[C@H](C23CC4CC(CC(C4)C2)C3)Cc2c1ccc(O)c2O` was -0.0757; that for `CC1CCN(CC[C@H]2CCCN2S(=O)(=O)c2cccc(O)c2)CC1` was -0.133.
`CCC1(c2ccccc2)C(=O)NCNC1=O` [Primidone]: the “S-phase gammaH2AX median (Z-score)” value is -0.0118.
The same measure for `COc1cc(Nc2c(C#N)cnc3cc(OCCCN4CCN(C)CC4)c(OC)cc23)c(Cl)cc1Cl` [Bosutinib (SKI-606)]: 0.168.
Regarding `COc1cc2ncnc(Nc3cccc(Br)c3)c2cc1OC`, the “S-phase gammaH2AX median (Z-score)” value is -0.00889.
The value for `CN(C)CCC(c1ccc(Br)cc1)c1ccccn1` (stereo not given) [(?)-Brompheniramine maleate] was -0.0777.
As for `COc1ccccc1N1CCN(CCCNc2c(C)c(=O)n(C)c(=O)n2C)CC1` [Urapidil, 5-Methyl-], the “S-phase gammaH2AX median (Z-score)” value is -0.287.
With `O=C(O)/C=C/C(O)c1ccc(Cl)cc1` (stereo not given), the “S-phase gammaH2AX median (Z-score)” value worked out at 0.0237.
The same measure for `C[C@]12CCC(=O)C=C1CC[C@@H]1[C@@H]2CC[C@@]2(C)[C@H]1CC[C@]2(O)C(=O)CO` [Cortexolone]: -0.123; for `CO/N=C(\C(=O)N[C@@H]1C(=O)N2C(C(=O)O)=C(COC(C)=O)CS[C@H]12)c1csc(N)n1` [Cefotaxime sodium]: 0.0233.
Turning to `CNC(=O)[C@@H](NC(=O)[C@H](CC(C)C)[C@H](O)C(=O)NO)C(C)(C)C` [Marimastat], the “S-phase gammaH2AX median (Z-score)” value was determined as 0.181.
Turning to `C[C@]12CC[C@@H]3c4ccc(O)cc4C[C@@H](CCCCCCCCC[S+]([O-])CCCC(F)(F)C(F)(F)F)[C@H]3[C@@H]1CC[C@@H]2O` (stereo not given in full), the “S-phase gammaH2AX median (Z-score)” value is -0.0584.
Regarding `NC1CCN(O)C1=O` (stereo not given), the “S-phase gammaH2AX median (Z-score)” value was -0.118.
As to `NC(N)=N[C@@H](CCC(=O)O)C(=O)O` [alpha-Guanidinoglutaric acid], the “S-phase gammaH2AX median (Z-score)” value is -0.00945.
In the case of `O=C(O)CCC(C(=O)O)N1C(=O)c2ccccc2C1=O` [L-Glutamic acid, N-phthaloyl-], the “S-phase gammaH2AX median (Z-score)” value was -0.0378.
As to `Cc1cc(Nc2cc(N3CCN(C)CC3)nc(Sc3ccc(NC(=O)C4CC4)cc3)n2)n[nH]1` [VX-680 (MK-0457, Tozasertib)], the “S-phase gammaH2AX median (Z-score)” value was -0.0367.
In the case of `Nc1nc(OCc2cc(Br)cs2)c2[nH]cnc2n1` [Lomeguatrib], the “S-phase gammaH2AX median (Z-score)” value is -0.0476.
With `CC(=O)Nc1nnc(S(N)(=O)=O)s1` [Acetazolamide], the “S-phase gammaH2AX median (Z-score)” value is -0.0777.
Consider `c1cc(CN2CCCCC2)cc(OCCCNc2nc3ccccc3s2)c1`, for which the “S-phase gammaH2AX median (Z-score)” value is -0.0734.
`CCOC(=O)[C@@H](C)Oc1cccc2c(=O)n(CC(=O)Nc3ccc4c(c3)OCCO4)ccc12`: the “S-phase gammaH2AX median (Z-score)” value was 0.0205.
With `OC[C@H]1O[C@@H](n2cnc3c(N[C@H]4CC5CCC4C5)ncnc32)[C@H](O)[C@@H]1O` (stereo not given in full), the “S-phase gammaH2AX median (Z-score)” value was -0.0504.
Consider `CCN(CC)CCNC(=O)c1ccc(N)cc1` [Procainamide hydrochloride], for which the “S-phase gammaH2AX median (Z-score)” value was determined as 0.0733.
On to `COc1ccc2c(c1)c(CC(=O)O)c(C)n2Cc1ccc(F)cc1` [1-(4-Fluorobenzyl)-5-methoxy-2-methylindole-3-acetic acid], for which the “S-phase gammaH2AX median (Z-score)” value is -0.0787.
The same measure for `CCOC(=O)C1=C(C)NC(=S)NC1c1cccc(O)c1` (stereo not given) [Monastrol]: 0.206; for `CC[C@H]1OC(=O)[C@H](C)[C@@H](O[C@H]2C[C@@](C)(OC)[C@@H](O)[C@H](C)O2)[C@H](C)[C@@H](O[C@@H]2O[C@H](C)C[C@H](N(C)C)[C@H]2O)[C@](C)(O)C[C@@H](C)CN(C)[C@H](C)[C@@H](O)[C@]1(C)O` [Azithromycin (Zithromax)]: 0.00193.
